This is an account of results in PMC9051106, “Structural insights into TRPV2 activation by small molecules” (Nature Communications, 2022).

The target in this assay is T1, Transient receptor potential vanilloid 2 (TRPV2), full-length wildtype rat, in lipid nanodiscs (rat), Q9WUD2.
T1 chain: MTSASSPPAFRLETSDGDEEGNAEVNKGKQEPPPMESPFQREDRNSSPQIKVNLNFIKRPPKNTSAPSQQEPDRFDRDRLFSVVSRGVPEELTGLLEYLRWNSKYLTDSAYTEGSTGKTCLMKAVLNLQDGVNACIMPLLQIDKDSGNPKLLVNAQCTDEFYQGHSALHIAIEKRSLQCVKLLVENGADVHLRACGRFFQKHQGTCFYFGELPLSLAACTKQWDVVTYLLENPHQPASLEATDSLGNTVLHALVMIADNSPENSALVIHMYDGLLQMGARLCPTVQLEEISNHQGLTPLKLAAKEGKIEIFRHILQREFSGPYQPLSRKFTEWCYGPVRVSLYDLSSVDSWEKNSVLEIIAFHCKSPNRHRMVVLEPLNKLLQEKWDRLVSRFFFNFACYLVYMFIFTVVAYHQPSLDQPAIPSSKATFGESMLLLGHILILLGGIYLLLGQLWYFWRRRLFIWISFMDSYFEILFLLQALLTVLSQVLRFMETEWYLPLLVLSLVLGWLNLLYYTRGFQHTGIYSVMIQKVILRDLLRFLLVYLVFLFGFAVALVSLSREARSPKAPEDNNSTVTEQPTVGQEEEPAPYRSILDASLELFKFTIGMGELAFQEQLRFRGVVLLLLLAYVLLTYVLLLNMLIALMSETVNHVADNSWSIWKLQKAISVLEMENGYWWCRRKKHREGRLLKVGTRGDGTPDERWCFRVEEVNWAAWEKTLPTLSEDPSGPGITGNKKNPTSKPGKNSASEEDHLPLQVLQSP
Kind of assay: cryo-EM structure; rat TRPV2 in lipid nanodiscs (MSP2N2, soy polar lipids), incubated with 1 mM 2-APB for 5 min, or with 1 mM 2-APB and 30 uM CBD for 30 min, before vitrification; refined with C4 symmetry; both purified. As to conditions: remark: other sources report otherwise.

These are yes or no findings as the source states them, for the method shown. Some results given as binding are weak or reduced against the parent protein; the word gives no strength.

B1: Transient receptor potential vanilloid 2 (TRPV2), full-length wildtype rat, in lipid nanodiscs, Q9WUD2 1-761 (protein)
chain: MTSASSPPAFRLETSDGDEEGNAEVNKGKQEPPPMESPFQREDRNSSPQIKVNLNFIKRPPKNTSAPSQQEPDRFDRDRLFSVVSRGVPEELTGLLEYLRWNSKYLTDSAYTEGSTGKTCLMKAVLNLQDGVNACIMPLLQIDKDSGNPKLLVNAQCTDEFYQGHSALHIAIEKRSLQCVKLLVENGADVHLRACGRFFQKHQGTCFYFGELPLSLAACTKQWDVVTYLLENPHQPASLEATDSLGNTVLHALVMIADNSPENSALVIHMYDGLLQMGARLCPTVQLEEISNHQGLTPLKLAAKEGKIEIFRHILQREFSGPYQPLSRKFTEWCYGPVRVSLYDLSSVDSWEKNSVLEIIAFHCKSPNRHRMVVLEPLNKLLQEKWDRLVSRFFFNFACYLVYMFIFTVVAYHQPSLDQPAIPSSKATFGESMLLLGHILILLGGIYLLLGQLWYFWRRRLFIWISFMDSYFEILFLLQALLTVLSQVLRFMETEWYLPLLVLSLVLGWLNLLYYTRGFQHTGIYSVMIQKVILRDLLRFLLVYLVFLFGFAVALVSLSREARSPKAPEDNNSTVTEQPTVGQEEEPAPYRSILDASLELFKFTIGMGELAFQEQLRFRGVVLLLLLAYVLLTYVLLLNMLIALMSETVNHVADNSWSIWKLQKAISVLEMENGYWWCRRKKHREGRLLKVGTRGDGTPDERWCFRVEEVNWAAWEKTLPTLSEDPSGPGITGNKKNPTSKPGKNSASEEDHLPLQVLQSP
With B1, the binding entry was “binds”.
